Binding data for one substance are collected here from paper PMC4557309.

Chains of the proteins cited; added tags and fusions are not shown. Lines headed by an entry give the natural chain unless they say otherwise; changes in a name come on top.
UniProt Q9XUS9: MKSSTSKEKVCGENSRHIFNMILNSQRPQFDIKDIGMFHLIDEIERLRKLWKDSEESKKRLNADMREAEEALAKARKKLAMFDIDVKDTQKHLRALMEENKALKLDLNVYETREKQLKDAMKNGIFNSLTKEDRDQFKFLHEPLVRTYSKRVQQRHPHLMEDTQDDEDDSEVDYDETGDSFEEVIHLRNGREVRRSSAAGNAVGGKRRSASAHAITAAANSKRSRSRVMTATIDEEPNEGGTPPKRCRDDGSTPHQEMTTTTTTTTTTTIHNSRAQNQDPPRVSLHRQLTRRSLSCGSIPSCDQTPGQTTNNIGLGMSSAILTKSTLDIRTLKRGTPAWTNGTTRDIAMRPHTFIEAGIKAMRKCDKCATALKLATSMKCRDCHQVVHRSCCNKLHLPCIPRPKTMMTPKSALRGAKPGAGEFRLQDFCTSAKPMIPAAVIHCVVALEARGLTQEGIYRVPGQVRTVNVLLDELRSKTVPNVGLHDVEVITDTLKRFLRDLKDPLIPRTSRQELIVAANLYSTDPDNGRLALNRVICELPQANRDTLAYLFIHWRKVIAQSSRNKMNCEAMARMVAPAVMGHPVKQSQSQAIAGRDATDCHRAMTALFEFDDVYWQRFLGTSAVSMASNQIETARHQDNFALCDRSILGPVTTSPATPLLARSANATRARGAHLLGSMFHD

These are yes or no findings as the source states them, for the method shown. Binding can be weak; no strength is given.

The test deals with MBP-CYK-4 FL (C. elegans) (UniProt Q9XUS9). The test can be described thus: pull-down; purified SPD-1 1–228 fragments incubated with amylose beads carrying MBP-CYK-4 fusion proteins; western blot with an anti-SPD-1 antibody; both purified. (In western blotting, separated proteins are transferred to a membrane and probed.)

With “SPD-1 1-228 fragment, wild type (from UniProt G5ED58) (domain or fragment)”, the binding entry is on record as “binds”.
